Reference: US20080293931A1, “Methods and compositions for the removal of nucleic acid amplification inhibitors” (priority 2006, published 2008)
For at least one compound, name, drawing or mass did not settle the structure.

Assays:
[1] = Humic acid (HA) removal from aqueous commercial HA solutions by PIR compounds, fluorimetric HA determination; parameters: key to ε values: ε = −log(1 − efficiency); efficiency = ([HA]i − [HA]f)/[HA]i; conditions: for ε values: 30 days storage, initial HA avg 10,200 mg/L
Description: Humic solutions were in 1×TAE buffer at RT with pH˜7. […] Samples from PIR experiments utilizing these materials were diluted, using 1×TAE, to concentrations falling within the linear response region representative of the humic material used.
In this study, when samples were interrogated for humic acid concentrations via fluorimetry, known concentrations of commercial humic acids were compared to known concentrations of humic standards.
FIG. 1 compares the HA removal from samples containing DNA of interest to the molar concentration of varied PIR compounds by plotting an HA reduction factor as the initial [HA] divided by [HA] following treatment with PIR compounds. The commercially available PIR kit, from Mo-BIO, is placed on FIG. 1 for comparison and was arbitrarily assigned a molar concentration of 1 for convenience. […] The data shown in FIG. 1 were generated from varied initial [HA], ranging from ˜5,000 to 300,000 mg/L HA. These varied initial [HA] values represent a “worst case” scenario and these are in comparison to initial [HA] in extractions from problematic soils generating humic acid concentrations typically less than 5,000 mg/L.
FIG. 2 plots the data from the same experiments represented in FIG. 1, but applying a different approach for data metric. FIG. 2 plots a dimensionless HA removal efficiency (or efficacy) value versus the decade of dilution necessary for successful PCR. The efficiency of HA removal is defined in equation 1 as the initial [HA] minus the final [HA] divided by the initial [HA]. This is essentially a percent removal approach.
Efficiency=[HA]i−[HA]f/[HA]; (1)
To further discriminate efficiency values greater than 0.99, the efficiency was subtracted from the integer value of 1, and the −log was taken of 1-efficiency to generate a non-negative value indicative of HA removal efficiency with greater level of discrimination and resolution of values with high degrees of HA removal. This is described by equation 2.

E. coli DNA = assay: PCR of seeded E. coli DNA after PIR treatment of aqueous HA samples (decade of dilution necessary for successful PCR); conditions: for Decade of dilution: 1M PTB in phosphate buffer, 30 days storage, initial HA avg 10,200 mg/L
Description: Consideration of dilution factors for successful PCR must also be reviewed. In untreated soil extracts containing DNA of interest, successful PCR of the extracted DNA may occur when the polymerase inhibitor is diluted sufficiently such that inhibition is suppressed and PCR may occur. Typical values for the dilution decade at which PCR is successful in samples containing humic materials and DNA of interest are often around decade four (1×10^4). Accordingly, a dilution factor of 10,000 would be necessary for successful PCR in a typical soil extract/sample. This magnitude of dilution may also impact PCR sensitivity for DNA/species already present at low concentrations and result in not identifying an organism that was present in the original sample extract.
Using this approach for presenting the HA removal data allows for the determination of a PIR compound's effectiveness for HA removal (ε) and compatibility for application in PCR systems via dilution data for PCR.

[2] = Humic acid removal from soil extracts (Los Alamos Airport Soil) by PIR compounds; conditions: 100 mM PIR, HA 7,600 mg/L
Description: Aqueous samples of humic solutions were interrogated via fluorimetry on a Jobin Jvon Spex Fluorolog II with an excitation wavelength of 471 nm, an emission wavelength of 529 nm, with slits @ 10 nm bandpass, pmt bias of 950V, 1 second integration per reading and 10 readings per sample or <0.1% RSD per sample. Humic solutions were in 1×TAE buffer at RT with pH˜7. […] Samples from PIR experiments utilizing these materials were diluted, using 1×TAE, to concentrations falling within the linear response region representative of the humic material used.

seeded E. coli DNA = assay: PCR after PIR treatment of soil extracts (dilution to achieve PCR); conditions: 100 mM PTB
[3] = PIR 1 M, aqueous humic samples seeded with E. coli DNA, HAi avg 6,500-12,300 depending on compound (Table 6 c2)

O=C(C[n+]1ccsc1)c1ccccc1 [PTB, Phenacyl Thiazolium Bromide] showed a ε values ([1]; 1M PTB in phosphate buffer, 4 C., dark) of 2.1, a ε values ([1]; 1M PTB in phosphate buffer, 25 C., dark) of 2.2 and a ε values ([1]; 1M PTB in phosphate buffer, 25 C., light) of 2.0. The ε values ([1]; 1M PTB in phosphate buffer, −20 C., dark) was 1.2, the “average humic acid (HA) reduction factor” value ([1]; 1M PTB in phosphate buffer, initial HA avg 9100 mg/L, 22 experiments) was 43 and the “Average Efficiency, ε” value [1, 3] was 1.37. The “Avg Reduction Factor” value [1, 3] was 44, the Decade of dilution (E. coli DNA; 4 C., dark) was 1 and the Decade of dilution (E. coli DNA; 25 C., dark) was 0. The Decade of dilution (E. coli DNA; 25 C., light) was 0, the Decade of dilution (E. coli DNA; −20 C., dark) was 1 and the “dilution required to overcome remaining PCR inhibition” value (E. coli DNA; 1M PTB, initial HA avg 9100 mg/L, 22 samples) was 1-2 orders of magnitude. For the same molecule, the “Typical dilution decade for PCR” value (E. coli DNA; [3]) was 2, the “range of dilutions (dilution decade for PCR)” value (E. coli DNA; [3]) was 0-5 and the average efficiency values [2] was 0.6. The average reduction factors [2] was 4 and the “further dilution of the treated sample to successfully achieve PCR” value (seeded E. coli DNA) was 1,000 factor.
